Assay results from PubChem BioAssay AID2685 (National Center for Advancing Translational Sciences (NCATS), 2010).
Where “and” joins values, the source holds several entries; their conditions need not be identical. Equal values may be shown once. This is one part of the list. These are further read-outs of the screen, such as a control signal, another cell line or another target. No call is given for them. Compounds called inactive in the main read-out are mostly missing here. Words in brackets tell the shape of the fitted curve; partial curves, single points and poor fits give uncertain potencies.

Assay: qHTS Assay for Lipid Storage Modulators in Drosophila S3 Cells;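 for cell number change: cells counted by Cell Tracker Red CMTPX staining in the red channel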
Details: BODIPY lipid droplet fluorescence, 18-24 h; for cell number change: measured here: cell count max response, cells fed with added oleic acid
Procedure, shortened: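 Drosophila S3 cells got compounds at several concentrations plus oleic acid (400 uM solution). Laser-scanning cytometry with 488 nm excitation read lipid droplets at 500-530 nm and cells at 575-640 nm. Percent activity was relative to 20 uM Triacsin C.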

[1] = measured here: lipid fluorescence (Fed channel) AC50, cells fed with added oleic acid
[2] = measured here: cell number channel AC50, cells fed with added oleic acid

| SMILES | cell number change | AC50 [1] | AC50 [2] |
| --- | --- | --- | --- |
| COc1cc(C(=O)NCC(=O)OCC(=O)c2ccc[nH]2)cc(OC)c1OC | 22.5% | 1.64 µM [falling, partial curve] | – |
| CCC(/C=N/NC(=O)CCCCC(=O)N/N=C/C(CC)CC)CC | – | 0.00517 µM [rising, full curve, poor fit] | 0.58 µM [rising, single point] |
| C/C=C(\C)C(=O)N[C@@H](C)CN1C2=NC[C@H](C(C)C)N2C[C@H]1Cc1ccc(OC)cc1 | -4.26% | – | – |
| O=C(NCCS(=O)(=O)NCc1ccccc1Cl)c1ccc2c(c1)OCO2 | 4.47% | 5.17 µM [falling, single point] | – |
| COC(=O)C(Cc1cnc(Cl)s1)(C(=O)OC)c1ccc([N+](=O)[O-])cc1[N+](=O)[O-] | 25.4% | 1.46 µM [rising, partial curve] | – |
| COc1ccc(-n2nc3c(c2NC(=O)c2ccc(S(=O)(=O)N4CCOCC4)cc2)CS(=O)C3)cc1 (stereo not given) | 29% | – | – |
| CC(=O)N(CCC(Cc1ccccc1)c1ccc2c(c1)OCO2)Cc1ccccc1F (stereo not given) | -36.4% | 7.31 µM [falling, partial curve] | 14.6 µM [falling, partial curve] |
| COc1ccc(OC)c(CCNC(=O)c2ccccc2NC(=O)C2=C(C)OCCS2)c1 | -23.4% | 23.1 µM [falling, partial curve] | – |
| CS(=O)(=O)Oc1ccc(Br)c2cccnc12 | 53% | 18.4 µM [rising, partial curve] | 14.6 µM [rising, partial curve] |
| NC(=O)CC(NC(=O)Cc1ccc(Br)cc1)c1ccc(N2CCC(N3CCCCC3)CC2)c([N+](=O)[O-])c1 (stereo not given) | 6.89% | 8.2 µM [falling, partial curve] | – |
| COc1cc(C(=O)Nc2nc(C)c(Cc3ccc4c(c3)OCO4)s2)cc(OC)c1OC | 10.3% | – | 0.731 µM [rising, partial curve] |
| CC(C)c1nc(-c2ccc([N+](=O)[O-])cc2)cs1 | – | 2.59 µM [rising, partial curve, poor fit] | – |
| Cc1nc2ccccc2cc1C(=O)O | 1.86% | – | – |
| CC(C#N)(Nc1ccc(Cl)cc1)c1cccnc1 (stereo not given) | -50.4% | – | 29.1 µM [falling, single point] |
| O=C(N=C1SC2CS(=O)(=O)CC2N1Cc1ccc(F)cc1)C1CCCO1 (stereo not given) | -0.382% | 20.6 µM [rising, single point] | – |
| COc1ccc(-c2sccc2C(C)C(=O)O)cc1 (stereo not given) | 8.16% | 6.51 µM [falling, single point] | – |
| CC(C(=O)NC1CC(C)(C)NC(C)(C)C1)c1ccc([N+](=O)[O-])cc1 (stereo not given) | -14.1% | 0.00461 µM [falling, full curve, poor fit] | 0.116 µM [falling, full curve, poor fit] |
| Cc1ccc(C)c(S(=O)(=O)N2CCN(C(=O)c3cccnc3)CC2)c1 | – | 35.5 µM [falling, single point] | – |
| CCOc1ccc(N2C(=O)C(c3ccccc3)=C(c3nc4ccccc4s3)C2NC(C)=O)cc1 (stereo not given) | – | 1.84 µM [rising, partial curve] | – |

| SMILES | cell number change | AC50 [1] | AC50 [2] |
| --- | --- | --- | --- |
| Cc1ccccc1OCc1n(CC(=O)OC2CC(C)CCC2C(C)C)c2ccccc2[n+]1C (stereo not given) | -80.3% and -69.4% | 29.1 µM [falling, single point] | 32.6 µM [falling, partial curve, poor fit] |
| CCC(C)[C@H](NC(=O)N1CC(=O)Nc2ccccc21)C(=O)N[C@H](Cc1ccccc1)C(=O)O (stereo not given in full) | – | 2.06 µM [rising, partial curve, poor fit] | – |
| COCCNC(=O)Cn1cnc2ccc(S(=O)(=O)N3CCC(C)CC3)cc2c1=O | -30.4% | – | 13 µM [falling, partial curve, poor fit] |
| COc1cc2nc(Nc3ccc(C)c(Cl)c3)nc(N)c2cc1OC | -26.4% | 29.1 µM [rising, partial curve] | – |
| CN(C)c1nc(Oc2ccc(N)cc2)nc(N(C)C)n1 | – | 1.46 µM [rising, full curve] | 0.0731 µM [rising, full curve, poor fit] |
| CCC(=O)Nc1ccccc1C(=O)NC1CCCCC1 | 45.1% | – | 29.1 µM [rising, single point] |
| Cc1ccc(F)cc1NC(=O)c1ccc(NS(=O)(=O)c2ccc(Br)s2)cc1 | 3.26% | – | – |
| O=C(CN1C(=O)S/C(=C\C=C\c2ccccc2)C1=O)Nc1ccc(O)cc1 | 50% | – | 16.4 µM [rising, single point] |
| CCn1c(SCc2nc(-c3ccccc3)no2)nc2ccccc21 | – | 4.61 µM [falling, single point] | – |
| CCCn1c(SCC(=O)NCc2ccc(C)cc2)n[nH]c1=O | – | 0.103 µM [falling, full curve, poor fit] | – |
| O=C(CSc1nnc(SCc2cccc3ccccc23)s1)Nc1ccc(C(=O)O)cc1 | 8.21% | 1.16 µM [falling, partial curve, poor fit] | – |
| Cc1c(NC(=O)C(C)n2cc([N+](=O)[O-])cn2)c(=O)n(-c2ccccc2)n1C (stereo not given) | -15.1% | 0.146 µM [falling, full curve, poor fit] | 0.0184 µM [falling, full curve, poor fit] |
| CCCCSc1nnc2c(n1)OC(C(=O)c1ccccc1)Nc1ccccc1-2 (stereo not given) | 9.1% | 6.51 µM [rising, single point] | – |
| Cc1cc(Cl)ccc1NC(=O)CN1CCCC1 | 3.94% | 0.0517 µM [rising, full curve, poor fit] | – |
| CN(Cc1ccccc1)S(=O)(=O)c1ccc(Cl)c(C(=O)NCc2cccnc2)c1 | -8.75% | – | 6.51 µM [falling, single point] |
| CCCn1c(=N)n(CC(O)COc2ccc(C)cc2)c2ccccc21 (stereo not given) | -22.4% | 29.1 µM [falling, single point] | – |
| CC(Oc1ccc(F)cc1)C(=O)N(Cc1ccccc1)c1c(N)n(Cc2ccccc2)c(=O)[nH]c1=O (stereo not given) | 40.7% | 4.61 µM [falling, single point] | 32.6 µM [rising, single point] |
| COCCOC(=O)c1c(C)oc2cc(Br)c(OCC(N)=O)cc12 | 23.7% | 5.17 µM [rising, full curve] | – |
| COCCNc1nnc(SCC(=O)NC(=O)c2ccccc2OC)s1 | 7.92% | – | 4.11 µM [rising, partial curve, poor fit] |

Three entries out of the list, ordered by SMILES length, high to low:

| SMILES | cell number change | AC50 [1] | AC50 [2] |
| --- | --- | --- | --- |
| Cc1ccc(F)cc1NC(=O)c1ccc(NS(=O)(=O)c2ccc(Br)s2)cc1 | 3.26% | – | – |
| CCCn1c(=N)n(CC(O)COc2ccc(C)cc2)c2ccccc21 (stereo not given) | -22.4% | 29.1 µM [falling, single point] | – |
| COc1cc2nc(Nc3ccc(C)c(Cl)c3)nc(N)c2cc1OC | -26.4% | 29.1 µM [rising, partial curve] | – |

Next entries.

| SMILES | cell number change | AC50 [1] | AC50 [2] |
| --- | --- | --- | --- |
| COc1cc(NC(=O)CCS(=O)(=O)c2ccc3c(c2)oc(=O)n3C)cc(OC)c1OC | 1.18% | 29.1 µM [falling, single point] | – |
| CC(C)c1ccc(/C=N/NC(=O)CN(c2cccc(Cl)c2Cl)S(C)(=O)=O)cc1 | -72.7% | 29.1 µM [falling, single point] | 20.6 µM [falling, partial curve, poor fit] |
| COc1cc(CCC(=O)Nc2ccc(S(=O)(=O)N3CCOCC3)cc2)cc(OC)c1OC | -7.1% | 29.1 µM [falling, single point] | – |
| CCCc1cc(=O)[nH]c(SCC(=O)c2cc(C)n(CC(F)(F)F)c2C)n1 | 61.4% | – | 29.1 µM [rising, single point] |
| COCCn1c(-c2ccc(OC)cc2)cnc1SCC(=O)Nc1cccc2ccccc12 | – | 0.13 µM [rising, full curve, poor fit] | – |
| Cc1cccc(NC(=O)NCC2CCN(c3ccc(S(=O)(=O)N4CCOCC4)cc3)CC2)c1 | 22.1% | 18.4 µM [falling, partial curve, poor fit] | – |
| O=[N+]([O-])c1ccc(-c2nnc(S)n2-c2ccccc2)cc1 | 1.76% | 0.92 µM [rising, full curve, poor fit] | – |
| COc1cccc(-n2nc(C(=O)Nc3ccc4c(c3)OCO4)c3ccccc3c2=O)c1 | 178% | 0.291 µM [rising, full curve] | 0.291 µM [rising, full curve] |
| CC(=O)Nc1ccc(SCC(=O)NCCc2ccc(F)cc2)cc1 | 3.42% | – | – |
| COc1ccc(C(=O)NNC(=O)CCC(=O)NNC(=O)c2ccc(OC)cc2)cc1 | 6.94% | 0.103 µM [falling, full curve, poor fit] | – |
| O=C(N/N=C/c1ccncc1)c1cccc(NC(=O)c2ccccc2Cl)c1 | 10.6% | 3.66 µM [rising, full curve, poor fit] | – |
| Cc1cc(NC(=O)C2CC=CCC2C(=O)O)no1 (stereo not given) | -4.11% | 6.51 µM [falling, single point] | – |
| COc1ccc(CNC(=O)Nc2ccc(OC)cc2)cc1 | 4.52% | 0.184 µM [falling, full curve, poor fit] | – |
| CCC(=O)N/N=C(\C)CC(=O)Nc1cc(Cl)ccc1C | 5.72% | – | 0.103 µM [rising, partial curve, poor fit] |
| O=C1CC(SC(=NCc2ccc3c(c2)OCO3)Nc2ccccc2)C(=O)N1 (stereo not given) | 11.9% | 0.461 µM [rising, partial curve, poor fit] | – |
| CCOC(=O)c1c(CN2CCCCC2)oc2ccc(OC)cc12 | -20% | 3.26 µM [falling, single point] | – |
| Cc1cccc(NC(=O)CC2C(=O)NCCN2C(=O)Nc2ccc(Cl)cc2)c1 (stereo not given) | -13.3% | 23.1 µM [falling, single point] | – |
| COc1ccc(Cl)cc1NC(=O)CN(C)C(=O)c1cccc(-n2cnnn2)c1 | 13.6% | 23.1 µM [rising, single point] | – |
| CCCCC(O)(c1ccc(OC)cc1)C(CN1CCOCC1)c1ccccc1 (stereo not given) | -35.8% | – | 25.9 µM [falling, single point] |
